Results reported in patent US20240158503A1.
Results are given in words; binding and its absence hold for the method and conditions named. Some entries that bind do so weakly or less than the wild type.

Amino acid sequences for entries named in this document (tags omitted). Residues count along the entry.
UniProt Q9Y279, residues 20-399: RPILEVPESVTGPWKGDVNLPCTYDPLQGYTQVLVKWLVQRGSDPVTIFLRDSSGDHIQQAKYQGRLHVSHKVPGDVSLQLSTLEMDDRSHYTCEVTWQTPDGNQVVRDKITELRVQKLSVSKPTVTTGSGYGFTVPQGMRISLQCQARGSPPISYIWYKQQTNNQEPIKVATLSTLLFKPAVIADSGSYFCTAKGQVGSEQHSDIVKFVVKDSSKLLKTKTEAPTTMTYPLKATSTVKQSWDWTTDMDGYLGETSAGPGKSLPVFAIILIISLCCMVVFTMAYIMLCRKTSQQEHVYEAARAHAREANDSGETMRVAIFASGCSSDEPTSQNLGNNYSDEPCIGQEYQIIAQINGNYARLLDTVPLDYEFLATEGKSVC

How the values were obtained:
[1] = biological target: human VSIG4 overexpressed on HEK293E cells (human) (UniProt Q9Y279); experiment: FACS on hVSIG4/HEK293E cells
[2] = biological target: human VSIG4 overexpressed on HEK293E cells (human) (UniProt Q9Y279); experiment: FACS on hVSIG4/HEK293E cells at 0.08, 0.4 and 2 ug/ml
[3] = biological target: human VSIG4 overexpressed on HEK293E cells (human) (UniProt Q9Y279); experiment: FACS on hVSIG4/HEK293E against parental HEK293E cells
[4] = biological target: human VSIG4 overexpressed on HEK293E cells (human) (UniProt Q9Y279); experiment: flow cytometry titration on HEK293E cells expressing human VSIG4

Measured: binding

B1: SA2281 (full-length human anti-VSIG4 monoclonal antibody, IgG form) (antibody, V domains shown)
VH: QVQLVESGGGVVQPGRSLRVSCAASGFTFSTYAMHWVRQAPGKGLEWLAVVSHDGTYKYYGDSVKGRFSISRDNSKNTLYLQMNSLRSEDTAVYYCGRHAAGSSFDYWGQGTVVTVSS
VL: DIQMTQSPSSLSASVGDRVTITCQASRDISNYLNWYQQKPGKAPKLLIYKTSNLQRGVPSRFSGSGSGTEFTLTISRLQPDDSATYYCQQSYRTPYTFGQGTKLEIK
binds: all assays above

B2: SA2297 (full-length human anti-VSIG4 monoclonal antibody, IgG form) (antibody, V domains shown)
VH: QVQLVESGGGVVQPGGSLRLSCAASGFIFSDYYMSWVRQAPGKGLEWVSYISPSGYTISYADSVKGRFTISRDNSKNSLYLQMNSLRAEDTAVYYCARRFSSSWSGYFDYWGHGALVTVSS
VL: DIQMTQSPSTLSASVGDRVTITCRASQNINRWLAWYQQKPGKAPKLLIYKAFRLHSGVPSRFSGSGSGTEFTLTITSLQPDDFATYYCQQYLSYSSSIFGQGTKVEIK
binds: all assays above
